No constants are given. Whether binding was seen depends on the method and setting. Binding can be weak; no strength is given. For some assays here: Binding seen in cells or lysates may run through a third protein. For some assays here: Tags and fused reporters may be left off the sequences shown.
Key:
[1] = biological target: T1, SpSaf1 (two-hybrid bait) (S. pombe) (UniProt O74517); test: two-hybrid; directed two-hybrid in S. cerevisiae strain PJ69-4A with pGBT9 and pGAD vectors; growth on selective media and ß-galactosidase activity
T1 sequence: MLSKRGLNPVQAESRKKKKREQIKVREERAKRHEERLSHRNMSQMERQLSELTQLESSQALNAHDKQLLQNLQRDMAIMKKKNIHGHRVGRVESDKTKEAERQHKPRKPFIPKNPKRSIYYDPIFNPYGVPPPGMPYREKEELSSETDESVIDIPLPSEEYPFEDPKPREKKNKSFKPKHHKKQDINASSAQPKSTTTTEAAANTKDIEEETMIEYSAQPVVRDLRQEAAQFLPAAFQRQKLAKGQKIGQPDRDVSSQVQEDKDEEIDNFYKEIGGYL

Chains of the proteins cited; added tags and fusions are not shown. Lines headed by an entry give the natural chain unless they say otherwise; changes in a name come on top.
UniProt O14097: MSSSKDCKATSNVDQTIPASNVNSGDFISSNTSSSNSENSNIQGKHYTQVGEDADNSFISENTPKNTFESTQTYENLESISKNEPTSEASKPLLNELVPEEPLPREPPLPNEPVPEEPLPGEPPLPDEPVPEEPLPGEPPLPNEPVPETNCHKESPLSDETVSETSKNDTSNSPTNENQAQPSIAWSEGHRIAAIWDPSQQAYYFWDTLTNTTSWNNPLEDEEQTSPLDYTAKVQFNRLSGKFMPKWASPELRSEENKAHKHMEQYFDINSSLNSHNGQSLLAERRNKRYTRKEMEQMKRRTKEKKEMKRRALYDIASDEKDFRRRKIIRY
UniProt Q9P7H6: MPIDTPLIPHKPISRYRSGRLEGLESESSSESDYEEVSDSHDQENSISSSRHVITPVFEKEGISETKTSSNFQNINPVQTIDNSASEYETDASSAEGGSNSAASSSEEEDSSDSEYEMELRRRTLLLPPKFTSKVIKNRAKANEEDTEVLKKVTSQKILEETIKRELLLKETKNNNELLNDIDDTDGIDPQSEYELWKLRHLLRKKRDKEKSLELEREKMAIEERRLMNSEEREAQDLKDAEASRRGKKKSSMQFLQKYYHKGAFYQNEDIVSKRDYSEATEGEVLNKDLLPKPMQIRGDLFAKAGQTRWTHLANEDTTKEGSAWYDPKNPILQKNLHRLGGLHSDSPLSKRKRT

[2] = biological target: T2, SpDre4, epitope-tagged (S. pombe) (UniProt Q09685); test: co-IP; S. pombe lysates of epitope-tagged strains (NP-40 lysis buffer); anti-Myc, anti-GFP, anti-FLAG or IgG (TAP) immunoprecipitates, immunoblot
T2 sequence: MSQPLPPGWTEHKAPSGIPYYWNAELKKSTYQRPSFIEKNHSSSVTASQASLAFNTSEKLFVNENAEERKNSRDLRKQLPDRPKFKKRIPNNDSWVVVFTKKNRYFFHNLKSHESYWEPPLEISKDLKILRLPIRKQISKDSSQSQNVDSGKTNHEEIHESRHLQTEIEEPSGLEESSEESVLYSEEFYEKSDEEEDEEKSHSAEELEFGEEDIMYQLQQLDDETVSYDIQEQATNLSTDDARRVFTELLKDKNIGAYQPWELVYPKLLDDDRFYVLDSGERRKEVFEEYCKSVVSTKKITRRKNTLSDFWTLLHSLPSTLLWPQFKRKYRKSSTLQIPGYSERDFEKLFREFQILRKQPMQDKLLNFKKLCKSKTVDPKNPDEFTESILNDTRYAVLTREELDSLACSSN

S. pombe Prp19-Myc13 = biological target: T3, S. pombe Prp19-Myc13 (S. pombe, UniProt O14011 1-488); test: as above
T3 construct: Prp19 (Cwf8), S. pombe, open reading frame tagged at the 3' end of the endogenous locus; also called SpPrp19; Cwf8; source: S. pombe, tagged at the endogenous locus, in lysate; not shown: Myc13, C-terminal, kept
T3 sequence (looked up): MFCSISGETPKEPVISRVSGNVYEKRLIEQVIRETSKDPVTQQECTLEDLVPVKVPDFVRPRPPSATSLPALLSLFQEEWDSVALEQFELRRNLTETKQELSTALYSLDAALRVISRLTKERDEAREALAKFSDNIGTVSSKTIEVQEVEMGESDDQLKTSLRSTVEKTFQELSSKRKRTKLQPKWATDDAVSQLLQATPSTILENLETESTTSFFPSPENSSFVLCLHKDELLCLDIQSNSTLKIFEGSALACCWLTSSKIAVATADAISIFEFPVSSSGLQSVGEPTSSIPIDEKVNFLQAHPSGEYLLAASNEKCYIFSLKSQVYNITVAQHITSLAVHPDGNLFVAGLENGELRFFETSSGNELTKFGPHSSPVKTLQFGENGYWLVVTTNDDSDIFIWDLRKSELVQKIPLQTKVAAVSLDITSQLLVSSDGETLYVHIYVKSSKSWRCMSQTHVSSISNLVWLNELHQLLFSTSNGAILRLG

binding [1]	binding [2]	binding (S. pombe Prp19-Myc13)	Substance
binds			SpDre4 WW domain region (two-hybrid prey) (S. pombe) (domain or fragment)
	binds	binds	SpSaf2, epitope-tagged at the endogenous locus (from UniProt O14097)
	binds	binds	SpSaf3, epitope-tagged at the endogenous locus (from UniProt Q9P7H6)

Reference: PMC3046128, “Systematic Two-Hybrid and Comparative Proteomic Analyses Reveal Novel Yeast Pre-mRNA Splicing Factors Connected to Prp19” (PLoS ONE, 2011)
